PubChem BioAssay AID1259425 | University of Nebraska Medical Center | 2018
This is an unselected part of about 14,000 reagents tested. Further read-outs or replicates are left out here. The record does not give: the time to read-out.

- Screen: 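Find knockdowns that reproduce the gene expression pattern seen when KSR1 is lost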 (primary screen)
- System: HCT116 human colon cancer cells
- Reagent: siRNA pool against human genes, 50 nM siRNA
- Measured: 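After 50 nM siRNA pool, branched-DNA assay measures six marker transcripts per well, minus blank, normalised to the geometric mean of two housekeeping transcripts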
- Scale: BNIP3L mRNA: higher = more BNIP3L transcript after knockdown; NDRG1 mRNA: higher = more NDRG1 transcript after knockdown

PYCR2 (pyrroline-5-carboxylate reductase 2) scored BNIP3L mRNA, set 1 = 0.0458; NDRG1 mRNA, set 1 = 0.151.
Against PRKAG2 (protein kinase AMP-activated non-catalytic subunit gamma 2), the values are BNIP3L mRNA, set 1 = 0.154; NDRG1 mRNA, set 1 = 0.18.
Against RAB11FIP5 (RAB11 family interacting protein 5), the entry reads BNIP3L mRNA, set 1 = 0.111; NDRG1 mRNA, set 1 = 0.914.
For PITPNC1 (phosphatidylinositol transfer protein cytoplasmic 1), the entry reads BNIP3L mRNA, set 1 = 0.118; NDRG1 mRNA, set 1 = 0.202.
Silencing of CHERP (calcium homeostasis endoplasmic reticulum protein) resulted in: BNIP3L mRNA, set 1 = 0.257; NDRG1 mRNA, set 1 = 0.228.
FNDC3B (fibronectin type III domain containing 3B) showed BNIP3L mRNA, set 1 = 0.606; NDRG1 mRNA, set 1 = 1.19.
After knock-down of CPA4 (carboxypeptidase A4), the record shows BNIP3L mRNA, set 1 = 0.126; NDRG1 mRNA, set 1 = 0.395.
ADA (adenosine deaminase) showed BNIP3L mRNA, set 1 = 0.0968; NDRG1 mRNA, set 1 = 0.0918.
HNRNPH1 (heterogeneous nuclear ribonucleoprotein H1) showed BNIP3L mRNA, set 1 = 0.126; NDRG1 mRNA, set 1 = 0.384.
Against CLCN2 (chloride voltage-gated channel 2), the entry reads BNIP3L mRNA, set 1 = 0.146; NDRG1 mRNA, set 1 = 0.145.
ARG2 (arginase 2) scored BNIP3L mRNA, set 1 = 0.0911; NDRG1 mRNA, set 1 = 0.676.
Against PLXNA1 (plexin A1) the deposit lists BNIP3L mRNA, set 1 = 0.0922; NDRG1 mRNA, set 1 = 0.0946.

Look-ups from above:
Result of PLXNA1 (plexin A1) in “BNIP3L mRNA, set 1”: 0.0922
Value for ARG2 (arginase 2) in “NDRG1 mRNA, set 1”: 0.676
